The values that follow come from paper doi:10.1101/822957.

The chains behind the UniProt entries cited, without tags or fusion partners. Where a name states a change or a piece, a line headed by the entry shows the natural chain unless it says otherwise. A line that says so, or that is headed by a name, gives the form on record, which may keep a tag or linker. Residues count along the entry.
UniProt P08908: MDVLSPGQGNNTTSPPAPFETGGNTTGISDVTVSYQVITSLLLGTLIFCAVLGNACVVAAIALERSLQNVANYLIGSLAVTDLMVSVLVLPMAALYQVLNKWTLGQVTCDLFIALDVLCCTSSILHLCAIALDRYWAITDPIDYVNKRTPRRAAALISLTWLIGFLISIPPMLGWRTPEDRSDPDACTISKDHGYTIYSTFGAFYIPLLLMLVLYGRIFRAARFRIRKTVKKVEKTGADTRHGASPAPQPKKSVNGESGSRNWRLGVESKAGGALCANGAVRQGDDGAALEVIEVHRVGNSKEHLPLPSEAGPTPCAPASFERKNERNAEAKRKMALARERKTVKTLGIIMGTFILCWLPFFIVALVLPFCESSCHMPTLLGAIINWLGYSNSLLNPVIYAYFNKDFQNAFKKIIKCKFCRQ
UniProt P28222: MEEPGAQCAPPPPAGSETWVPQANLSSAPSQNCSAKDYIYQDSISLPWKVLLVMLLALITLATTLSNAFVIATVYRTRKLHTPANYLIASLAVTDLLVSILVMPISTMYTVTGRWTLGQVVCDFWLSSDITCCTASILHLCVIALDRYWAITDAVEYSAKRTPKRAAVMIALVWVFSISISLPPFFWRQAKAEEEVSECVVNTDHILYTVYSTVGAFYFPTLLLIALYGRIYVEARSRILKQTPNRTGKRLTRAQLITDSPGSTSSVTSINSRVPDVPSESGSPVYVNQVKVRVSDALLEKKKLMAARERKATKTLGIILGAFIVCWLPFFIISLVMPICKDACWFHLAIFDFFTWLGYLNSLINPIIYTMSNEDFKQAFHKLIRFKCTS
Arr2 (1-393, wild type) with SmBiT at its N-terminus (P49407, residues 1-393): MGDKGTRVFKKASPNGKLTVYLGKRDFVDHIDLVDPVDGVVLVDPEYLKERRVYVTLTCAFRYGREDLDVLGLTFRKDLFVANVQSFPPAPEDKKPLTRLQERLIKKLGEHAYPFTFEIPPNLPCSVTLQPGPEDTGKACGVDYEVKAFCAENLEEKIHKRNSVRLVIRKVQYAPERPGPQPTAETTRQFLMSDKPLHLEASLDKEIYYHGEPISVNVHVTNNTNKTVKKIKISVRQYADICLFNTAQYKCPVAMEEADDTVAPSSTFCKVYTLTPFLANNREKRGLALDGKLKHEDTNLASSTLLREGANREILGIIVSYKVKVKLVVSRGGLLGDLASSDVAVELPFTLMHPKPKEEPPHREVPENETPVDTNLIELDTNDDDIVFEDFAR
Arr2 (1-393, 3A) with SmBiT at its N-terminus (P49407, form named): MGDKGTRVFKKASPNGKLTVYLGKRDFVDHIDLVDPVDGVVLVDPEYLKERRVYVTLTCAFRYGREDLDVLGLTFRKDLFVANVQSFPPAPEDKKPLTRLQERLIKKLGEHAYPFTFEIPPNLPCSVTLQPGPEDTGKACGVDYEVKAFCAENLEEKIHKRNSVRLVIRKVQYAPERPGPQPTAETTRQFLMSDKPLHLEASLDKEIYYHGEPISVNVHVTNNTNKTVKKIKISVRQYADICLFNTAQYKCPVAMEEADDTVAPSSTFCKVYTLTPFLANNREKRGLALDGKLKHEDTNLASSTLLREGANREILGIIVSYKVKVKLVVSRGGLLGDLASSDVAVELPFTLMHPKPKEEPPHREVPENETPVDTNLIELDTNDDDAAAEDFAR

Results are given in words; binding and its absence hold for the method and conditions named. For some of these results: In cells and extracts the contact can be indirect. Some results given as binding are weak or reduced against the parent protein; the word gives no strength.

Experiment [1] addresses NTSR1 (1-418, wild type)-TEV site-tTA (human) (UniProt P30989). The experiment is described as follows: Tango assay.
Experiment [2] addresses 5-HTR1A (NanoBiT construct) (UniProt P08908). In words: split reporter.
Experiment [3] concerns the target NTSR1 (1-418, wild type) with LgBiT at its C-terminus (human) (UniProt P30989). The experiment is described as follows: split reporter.
For experiment [4], the target named is 5-HTR1B (NanoBiT construct) (UniProt P28222). In words: split reporter.

For “Arr2 3A mutant-TEV protease (from UniProt P49407 1-393)”, the binding entry in experiment [1] was “binds”.

With “Arr2 (1-393, wild type) with SmBiT at its N-terminus (from UniProt P49407 1-393)”, the binding entry in experiment [2], in experiment [3] and in experiment [4] was “binds” in each case.

On to “Arr2 (1-393, 3A) with SmBiT at its N-terminus (from UniProt P49407 1-393)”, for which the binding entry in experiment [2], in experiment [3] and in experiment [4] was “binds” in each case.
